Data: PubChem BioAssay AID288 (DTP/NCI, 2004)
The list shows only some results of the screen, not a fair sample: it gathers tests that were run many times, whatever their T/C, doses with no T/C, and many T/C values between a quarter and a half above the control. Further doses and runs are listed elsewhere. T/C: endpoint of the treated group in % of that of the vehicle group. Schedule codes are those of the source, taken here to give the interval after Q, in days (D) or hours (H), and the number of doses after X. Some doses have a count of surviving animals in place of a T/C: the source holds a T/C of zero for them, seemingly a mark for toxic or unscored doses. Some doses without a T/C left all or most animals alive at the check, yet need not have been tolerated: survival well below the control is almost never listed, so the zero probably covers shortened survival too. Counts of survivors are from the toxicity check (mostly the fifth day) where no day follows; animals may have died later. Where survival is the endpoint, this PubChem deposit counts one and a half times the control or more as active, and values a quarter to a half above the control carry no call in these data; other NCI protocols may use other cut-offs.

System: BDF1 mice, M5076 sarcoma s.c., survival/tumor T/C
Assay: NCI In Vivo Anticancer Drug Screen. Data for tumor model Sarcoma M5076 (subcutaneous) in B6D2F1 (BDF1) mice
Experimental: The antitumor activity of compounds was measured in mice bearing transplantable tumors. Survival or tumor size were measured and the results are expressed as the measurement made in the treated group (T) divided by the measurement made in the vehicle treated control group (C). The tumor model used in this assay is Sarcoma M5076 (subcutaneous) in B6D2F1 (BDF1) mice

[1] = T/C endpoint: median tumor weight (est.), dose: 50.0 mg/kg/injection, schedule: Q01DX009 (ip), vehicle: saline with Tween-80, evaluated on day 20, higher T/C = larger tumour
[2] = T/C endpoint: median tumor weight (est.), dose: 200.0 mg/kg/injection, schedule: Q01DX009 (ip), vehicle: saline with Tween-80, evaluated on day 20, higher T/C = larger tumour

In the case of `Nc1ncnc2c1ccn2C1OC(CO)C(O)C1O` (stereo unspecified), the T/C (T/C endpoint: mean tumor weight, dose: 0.38 mg/kg/injection, schedule: Q02DX011 (ip), vehicle: saline, evaluated on day 22, higher T/C = larger tumour) is reported as 130 % of control.
`COC(=O)C(Cc1ccccc1)NS(=O)(=O)c1ccc(C)cc1` (stereo unspecified) was tested, and the T/C [1] was 138 % of control and the T/C [2] was 130 % of control.
For `Cc1c2ccncc2c(C)c2c1[nH]c1ccccc12`, the survivor count (T/C endpoint: mean tumor weight, dose: 25.0 mg/kg/injection, schedule: Q02DX011 (ip), vehicle: water, higher T/C = larger tumour) was 0 of 10 on day 22, the survivor count (T/C endpoint: mean tumor weight, dose: 50.0 mg/kg/injection, schedule: Q02DX011 (ip), vehicle: water, higher T/C = larger tumour) was 0 of 10 on day 22 and the survivor count (T/C endpoint: mean tumor weight, dose: 100.0 mg/kg/injection, schedule: Q02DX011 (ip), vehicle: water, higher T/C = larger tumour) was 0 of 10 on day 22. The survivor count (T/C endpoint: median tumor weight (est.), dose: 25.0 mg/kg/injection, schedule: Q02DX011 (ip), vehicle: water, higher T/C = larger tumour) was 0 of 10 on day 22, the survivor count (T/C endpoint: median tumor weight (est.), dose: 50.0 mg/kg/injection, schedule: Q02DX011 (ip), vehicle: water, higher T/C = larger tumour) was 0 of 10 on day 22 and the survivor count (T/C endpoint: median tumor weight (est.), dose: 100.0 mg/kg/injection, schedule: Q02DX011 (ip), vehicle: water, higher T/C = larger tumour) was 0 of 10 on day 22.
`CC(=O)[C@H]1CC[C@H]2[C@@H]3C[C@H](C)C4=CC(=O)CC[C@]4(C)[C@H]3C(=O)C[C@]12C` was tested, and the survivor count (T/C endpoint: mean tumor weight, dose: 400.0 mg/kg/injection, schedule: Q02DX011 (ip), vehicle: Klucel (hydroxypropylcellulose) (HPC), higher T/C = larger tumour) was 4 of 10 on day 22.
For `C1CN1c1nc(N2CC2)nc(N2CC2)n1`, the T/C (T/C endpoint: median survival time, dose: 0.5 mg/kg/injection, schedule: Q02DX011 (ip), vehicle: saline, higher T/C = longer survival) was 140 % of control and the survivor count (T/C endpoint: median survival time, dose: 2.0 mg/kg/injection, schedule: Q02DX011 (ip), vehicle: saline, higher T/C = longer survival) was 0 of 10 on day 16.
In the case of `O=NN(CCCl)C(=O)NCCCl`, the T/C (T/C endpoint: median survival time, dose: 1.5 mg/kg/injection, schedule: Q01DX009 (ip), vehicle: saline + alcohol, higher T/C = longer survival) is reported as 143 % of control, the T/C (T/C endpoint: median survival time, dose: 3.0 mg/kg/injection, schedule: Q01DX009 (ip), vehicle: saline + alcohol, higher T/C = longer survival) is reported as 146 % of control and the survivor count (T/C endpoint: median survival time, dose: 12.0 mg/kg/injection, schedule: Q01DX009 (ip), vehicle: saline + alcohol, higher T/C = longer survival) is reported as 10 of 10 on day 9. The survivor count (T/C endpoint: median tumor weight (est.), dose: 12.0 mg/kg/injection, schedule: Q01DX009 (ip), vehicle: saline + alcohol, higher T/C = larger tumour) was 2 of 10 on day 20.
In the case of `CSC1SCC2C(=O)N(C)C(C(C)C)C(=O)OCC(NC(=O)c3cnc4ccccc4n3)C(=O)NC(C)C(=O)N(C)C1C(=O)N(C)C(C(C)C)C(=O)OCC(NC(=O)c1cnc3ccccc3n1)C(=O)NC(C)C(=O)N2C` (stereo unspecified), the survivor count (T/C endpoint: median survival time, dose: 0.24 mg/kg/injection, schedule: Q04DX003 (ip), vehicle: saline with Tween-80, higher T/C = longer survival) is reported as 2 of 10 and the survivor count (T/C endpoint: median survival time, dose: 0.48 mg/kg/injection, schedule: Q04DX003 (ip), vehicle: saline with Tween-80, higher T/C = longer survival) is reported as 0 of 10.
In the case of `CN(N=O)C(=O)N[C@@H](C=O)[C@@H](O)[C@H](O)[C@H](O)CO`, the survivor count (T/C endpoint: mean tumor weight, dose: 150.0 mg/kg/injection, schedule: Q02DX011 (ip), vehicle: other, higher T/C = larger tumour) is reported as 0 of 10 on day 22 and the survivor count (T/C endpoint: median tumor weight (est.), dose: 150.0 mg/kg/injection, schedule: Q02DX011 (ip), vehicle: other, higher T/C = larger tumour) is reported as 0 of 10 on day 22.
In the case of `C1CN(P2(N3CC3)=NP(N3CC3)(N3CC3)=NP(N3CC3)(N3CC3)=N2)CCO1` (stereo unspecified), the survivor count (T/C endpoint: median survival time, dose: 100.0 mg/kg/injection, schedule: Q02DX011 (ip), vehicle: saline, higher T/C = longer survival) is reported as 3 of 10 on day 16 and the survivor count (T/C endpoint: median survival time, dose: 200.0 mg/kg/injection, schedule: Q02DX011 (ip), vehicle: saline, higher T/C = longer survival) is reported as 0 of 10 on day 16.
`C=C1C(O)C2OC3(CCC(/C=C/C(C)C4CC5(C)SC5C5(OC(CC(C)(O)C(=O)O)CCC5O)O4)O3)CCC2OC1C(O)CC(C)C1OC2(CCCCO2)CCC1C` (stereo unspecified) was tested, and the survivor count (T/C endpoint: median survival time, dose: 20.0 micrograms/kg/injection, schedule: Q01DX009 (ip), vehicle: saline + alcohol, higher T/C = longer survival) was 3 of 10 on day 9, the T/C (T/C endpoint: median tumor weight (est.), dose: 10.0 micrograms/kg/injection, schedule: Q01DX009 (ip), vehicle: saline + alcohol, evaluated on day 20, higher T/C = larger tumour) was 136 % of control and the survivor count (T/C endpoint: median tumor weight (est.), dose: 20.0 micrograms/kg/injection, schedule: Q01DX009 (ip), vehicle: saline + alcohol, higher T/C = larger tumour) was 0 of 10 on day 20.
In the case of `CC1(C)OC(C)(C)c2c1nnc(-c1ccccc1)[n+]2[O-]`, the T/C [1] is reported as 125 % of control.
`O=c1[nH]c(=O)n(C2CC(O)C(CO)O2)cc1C(F)(F)F` (stereo unspecified) was tested, and the survivor count (T/C endpoint: median tumor weight (est.), dose: 150.0 mg/kg/injection, schedule: Q02DX011 (ip), vehicle: saline, higher T/C = larger tumour) was 4 of 10 on day 22 and the survivor count (T/C endpoint: median tumor weight (est.), dose: 300.0 mg/kg/injection, schedule: Q02DX011 (ip), vehicle: saline, higher T/C = larger tumour) was 3 of 10 on day 22.
For `COc1cc(NS(C)(=O)=O)ccc1Nc1c2ccccc2nc2ccccc12`, the survivor count (T/C endpoint: mean tumor weight, dose: 0.94 mg/kg/injection, schedule: Q02DX011 (ip), vehicle: clinical formulation, higher T/C = larger tumour) was 0 of 10 on day 22, the survivor count (T/C endpoint: mean tumor weight, dose: 1.88 mg/kg/injection, schedule: Q02DX011 (ip), vehicle: clinical formulation, higher T/C = larger tumour) was 0 of 10 on day 22 and the survivor count (T/C endpoint: mean tumor weight, dose: 3.75 mg/kg/injection, schedule: Q02DX011 (ip), vehicle: clinical formulation, higher T/C = larger tumour) was 0 of 10 on day 22. The survivor count (T/C endpoint: mean tumor weight, dose: 7.5 mg/kg/injection, schedule: Q02DX011 (ip), vehicle: clinical formulation, higher T/C = larger tumour) was 0 of 10 on day 22, the survivor count (T/C endpoint: median tumor weight (est.), dose: 0.94 mg/kg/injection, schedule: Q02DX011 (ip), vehicle: clinical formulation, higher T/C = larger tumour) was 0 of 10 on day 22 and the survivor count (T/C endpoint: median tumor weight (est.), dose: 1.88 mg/kg/injection, schedule: Q02DX011 (ip), vehicle: clinical formulation, higher T/C = larger tumour) was 0 of 10 on day 22. For the same molecule, the survivor count (T/C endpoint: median tumor weight (est.), dose: 3.75 mg/kg/injection, schedule: Q02DX011 (ip), vehicle: clinical formulation, higher T/C = larger tumour) was 0 of 10 on day 22 and the survivor count (T/C endpoint: median tumor weight (est.), dose: 7.5 mg/kg/injection, schedule: Q02DX011 (ip), vehicle: clinical formulation, higher T/C = larger tumour) was 0 of 10 on day 22.
With `CC(=O)O[C@H]1C(=O)[C@@]2(C)[C@H]([C@H](OC(=O)c3ccccc3)[C@]3(O)C[C@H](OC(=O)[C@H](O)[C@@H](NC(=O)c4ccccc4)c4ccccc4)C(C)=C1C3(C)C)[C@]1(OC(C)=O)CO[C@@H]1C[C@@H]2O` the T/C (T/C endpoint: median survival time, dose: 2.96 mg/kg/injection, schedule: Q02DX011 (ip), vehicle: other, higher T/C = longer survival) was 130 % of control, the survivor count (T/C endpoint: median survival time, dose: 20.0 mg/kg/injection, schedule: Q04DX003 (ip), vehicle: Klucel (hydroxypropylcellulose) (HPC), higher T/C = longer survival) was 3 of 10 and the survivor count (T/C endpoint: median survival time, dose: 22.5 mg/kg/injection, schedule: Q02DX011 (ip), vehicle: Klucel (hydroxypropylcellulose) (HPC), higher T/C = longer survival) was 10 of 10. For the same molecule, the survivor count (T/C endpoint: median tumor weight (est.), dose: 22.5 mg/kg/injection, schedule: Q02DX011 (ip), vehicle: Klucel (hydroxypropylcellulose) (HPC), higher T/C = larger tumour) was 1 of 10 on day 22.
With `Nc1nc([Se])c2ncn(C3OC(CO)C(O)C3O)c2n1` (stereo unspecified) the T/C (T/C endpoint: median survival time, dose: 32.0 mg/kg/injection, schedule: Q01DX009 (ip), vehicle: saline, higher T/C = longer survival) was 134 % of control, the survivor count (T/C endpoint: median survival time, dose: 32.0 mg/kg/injection, schedule: Q01DX009 (ip), vehicle: suspension in saline, higher T/C = longer survival) was 9 of 10 on day 9 and the survivor count (T/C endpoint: median survival time, dose: 64.0 mg/kg/injection, schedule: Q01DX009 (ip), vehicle: suspension in saline, higher T/C = longer survival) was 3 of 10 on day 9. For the same molecule, the survivor count (T/C endpoint: median tumor weight (est.), dose: 32.0 mg/kg/injection, schedule: Q01DX009 (ip), vehicle: suspension in saline, higher T/C = larger tumour) was 3 of 10 on day 20 and the survivor count (T/C endpoint: median tumor weight (est.), dose: 64.0 mg/kg/injection, schedule: Q01DX009 (ip), vehicle: suspension in saline, higher T/C = larger tumour) was 0 of 10 on day 20.
For `COc1cc(/C=C2\SC(=S)N(c3ccc(Cl)c(Cl)c3)C2=O)ccc1O`, the survivor count (T/C endpoint: median survival time, dose: 200.0 mg/kg/injection, schedule: Q01DX009 (ip), vehicle: saline with Tween-80, higher T/C = longer survival) was 10 of 10 and the survivor count (T/C endpoint: median tumor weight (est.), dose: 200.0 mg/kg/injection, schedule: Q01DX009 (ip), vehicle: saline with Tween-80, higher T/C = larger tumour) was 5 of 10 on day 20.
For `NCCNCC(O)CO` (stereo unspecified), the T/C (T/C endpoint: median tumor weight (est.), dose: 50.0 mg/kg/injection, schedule: Q01DX009 (ip), vehicle: saline, evaluated on day 20, higher T/C = larger tumour) was 144 % of control.
In the case of `Nc1ncn(C2OC(CO)C(O)C2O)c(=O)n1` (stereo unspecified), the survivor count (T/C endpoint: median survival time, dose: 2.59 mg/kg/injection, schedule: Q04DX004 (ip), vehicle: saline, higher T/C = longer survival) is reported as 6 of 8, the survivor count (T/C endpoint: median survival time, dose: 4.32 mg/kg/injection, schedule: Q04DX004 (ip), vehicle: saline, higher T/C = longer survival) is reported as 6 of 8 and the survivor count (T/C endpoint: median survival time, dose: 7.2 mg/kg/injection, schedule: Q04DX004 (ip), vehicle: saline, higher T/C = longer survival) is reported as 6 of 8. The survivor count (T/C endpoint: median survival time, dose: 12.0 mg/kg/injection, schedule: Q04DX004 (ip), vehicle: saline, higher T/C = longer survival) was 10 of 10.
For `CN(C)c1nc(N(C)C)nc(N(C)C)n1`, the T/C (T/C endpoint: median survival time, dose: 88.0 mg/kg/injection, schedule: Q02DX033 (ip), vehicle: saline with Tween-80, higher T/C = longer survival) was 143 % of control and the survivor count (T/C endpoint: median tumor weight (est.), dose: 240.0 mg/kg/injection, schedule: Q02DX011 (ip), vehicle: saline with Tween-80, higher T/C = larger tumour) was 1 of 10 on day 22.
For `CN(C)CCCNc1c2ccccc2nc2cccc([N+](=O)[O-])c12`, the T/C (T/C endpoint: median tumor weight (est.), dose: 16.0 micrograms/kg/injection, schedule: Q02DX011 (ip), vehicle: saline, evaluated on day 22, higher T/C = larger tumour) was 128 % of control.
With `COC1CC23OC2(C1)C1C=CC3N(C(=O)OCC(Cl)(Cl)Cl)N1C(=O)OCC(Cl)(Cl)Cl` (stereo unspecified) the T/C [2] was 126 % of control.
